From paper PMC5634466
For at least one entry, the source does not settle the construct or the ends of the probe. Where cells or extracts were used, other partners may take part. Tags and fusion partners may be left off the protein sequences shown.

Assays:
[1] = molecular target: T1, NRF-1 (nuclear respiratory factor 1, endogenous) (UniProt Q16656); test: EMSA supershift; conditions: HEK293T nuclear extract, anti-NRF-1 supershift; DIG Gel Shift kit 2nd generation (Roche), manufacturer's instructions; HEK293T nuclear extracts; 250-fold unlabeled oligo for competition; protein in an extract; label: DIG (DIG Gel Shift kit)
T1 sequence (looked up, limits assumed): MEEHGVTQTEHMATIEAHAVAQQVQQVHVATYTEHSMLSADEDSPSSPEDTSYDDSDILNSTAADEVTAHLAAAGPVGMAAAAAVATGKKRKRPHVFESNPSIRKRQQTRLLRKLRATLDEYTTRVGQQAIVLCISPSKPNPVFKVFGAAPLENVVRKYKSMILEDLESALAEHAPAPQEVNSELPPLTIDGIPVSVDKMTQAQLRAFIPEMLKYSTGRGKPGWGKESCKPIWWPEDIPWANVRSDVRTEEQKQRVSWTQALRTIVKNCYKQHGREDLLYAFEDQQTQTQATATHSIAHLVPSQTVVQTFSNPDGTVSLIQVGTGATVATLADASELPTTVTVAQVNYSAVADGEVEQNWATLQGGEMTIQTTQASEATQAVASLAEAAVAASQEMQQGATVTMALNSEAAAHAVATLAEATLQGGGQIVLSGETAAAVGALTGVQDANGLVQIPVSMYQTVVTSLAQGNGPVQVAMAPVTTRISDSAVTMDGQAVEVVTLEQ

[2] = molecular target: T1, NRF-1 (nuclear respiratory factor 1, endogenous); test: EMSA; conditions: HBZ-deltaCD overexpressed (does not bind NRF-1), no inhibition; DIG Gel Shift kit 2nd generation (Roche), manufacturer's instructions; HEK293T nuclear extracts; 250-fold unlabeled oligo for competition; protein in an extract; label: DIG (DIG Gel Shift kit)

Sequence: ACTGCGCGCATGCGCGGCGG (double strand) [TDP1 promoter NRF-1 site EMSA probe]
- binding result [1]: binds
- binding result [2]: binds
